Reference: patent US20160263110A1 (priority 2013, published 2016)
Like-named read-outs stand apart in the source and are kept apart here.

Test system: B6SJL-Tg SOD1G93A female mice
Conditions: overall significance level 0.05

Structure (SMILES): Cc1ccc(NC(=O)c2ccc(CN3CCN(C)CC3)cc2)cc1Nc1nc(-c2cccnc2)cs1 [masitinib, 4-(4-methylpiperazin-1-ylmethyl)-N-[4-methyl-3-(4-pyridin-3ylthiazol-2-ylamino)phenyl]benzamide]
- Significant? onset curves, versus CTRL (30 mg/kg/day (MASI 1)): Yes
- Significant? onset curves, versus CTRL (100 mg/kg/day (MASI 2)): Yes
